These are yes or no findings as the source states them, for the method shown. Binding seen in cells or lysates may run through a third protein. Some entries that bind do so weakly or less than the wild type. Tags and fused reporters may be left off the sequences shown.

Sequences of proteins named here, by UniProt entry; tags and fusion partners are left off.
UniProt P92208: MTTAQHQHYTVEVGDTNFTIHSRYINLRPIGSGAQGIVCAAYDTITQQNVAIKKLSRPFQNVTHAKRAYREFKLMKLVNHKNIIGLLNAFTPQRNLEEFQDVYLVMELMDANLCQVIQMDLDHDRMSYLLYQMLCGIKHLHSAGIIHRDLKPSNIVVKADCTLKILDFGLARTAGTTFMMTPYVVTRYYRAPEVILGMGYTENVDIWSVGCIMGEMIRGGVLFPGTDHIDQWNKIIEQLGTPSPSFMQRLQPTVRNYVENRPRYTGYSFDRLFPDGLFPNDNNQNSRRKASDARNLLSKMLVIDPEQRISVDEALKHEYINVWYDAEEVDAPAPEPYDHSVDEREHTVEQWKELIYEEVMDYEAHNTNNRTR

This note sets out measurements from paper PMC2766050.

Experiment [1] deals with T1, HA tagged Mkk4^Asp (Drosophila) (UniProt O61444).
T1 sequence: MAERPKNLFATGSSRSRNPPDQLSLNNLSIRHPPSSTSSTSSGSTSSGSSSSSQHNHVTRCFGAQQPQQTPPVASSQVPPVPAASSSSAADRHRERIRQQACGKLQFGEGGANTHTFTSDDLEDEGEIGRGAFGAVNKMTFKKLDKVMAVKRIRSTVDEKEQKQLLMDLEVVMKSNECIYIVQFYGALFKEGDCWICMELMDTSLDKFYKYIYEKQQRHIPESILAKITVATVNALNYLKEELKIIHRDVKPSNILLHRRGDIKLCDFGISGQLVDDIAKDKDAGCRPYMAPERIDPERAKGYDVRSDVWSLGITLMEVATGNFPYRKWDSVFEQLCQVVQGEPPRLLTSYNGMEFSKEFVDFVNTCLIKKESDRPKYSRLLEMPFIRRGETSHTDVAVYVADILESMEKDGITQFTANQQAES
The experiment in a line: co-IP; S2 cells co-transfected with expression vectors; lysis in 150 mM NaCl, 50 mM Tris-HCl pH 8.0, 1% Nonidet P-40, 0.5% deoxycholic acid; anti-HA antibody and Protein-A sepharose, 4°C overnight; blot with anti-FLAG M2.

The target in experiment [2] is T2, N-terminally HA tagged Mkk4 (Drosophila) (UniProt O61444).
T2 sequence: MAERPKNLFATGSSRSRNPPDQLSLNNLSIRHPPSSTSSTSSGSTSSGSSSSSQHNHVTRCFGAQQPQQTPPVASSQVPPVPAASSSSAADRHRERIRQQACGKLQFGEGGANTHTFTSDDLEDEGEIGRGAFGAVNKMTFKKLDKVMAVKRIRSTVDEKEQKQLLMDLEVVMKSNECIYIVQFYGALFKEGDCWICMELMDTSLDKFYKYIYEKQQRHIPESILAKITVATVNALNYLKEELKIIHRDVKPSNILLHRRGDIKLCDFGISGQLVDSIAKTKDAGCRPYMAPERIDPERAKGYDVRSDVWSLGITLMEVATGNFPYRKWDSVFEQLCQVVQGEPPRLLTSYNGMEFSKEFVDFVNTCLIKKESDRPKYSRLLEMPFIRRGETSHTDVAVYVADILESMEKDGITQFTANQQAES
Described as above.

As to “C-terminally FLAG tagged Bsk (from UniProt P92208 1-372) (enzyme)”, the binding result in experiment [1] is listed as “no binding”; in experiment [2] it was “binds”.

B1: C-terminally FLAG tagged dTAK1 (enzyme, UniProt Q9V3Q6 1-678)
chain: MATASLDALQAAYVDFSEITLREKVGHGSYGVVCKAVWRDKLVAVKEFFASAEQKDIEKEVKQLSRVKHPNIIALHGISSYQQATYLIMEFAEGGSLHNFLHGKVKPAYSLAHAMSWARQCAEGLAYLHAMTPKPLIHRDVKPLNLLLTNKGRNLKICDFGTVADKSTMMTNNRGSAAWMAPEVFEGSKYTEKCDIFSWAIVLWEVLSRKQPFKGIDNAYTIQWKIYKGERPPLLTTCPKRIEDLMTACWKTVPEDRPSMQYIVGVMHEIVKDYTGADKALEYTFVNQQIVTKESDGTVAAQPDSLSSQEGELSPSSTQLTPTTAANANVNAIAISKTTTSSMTENTSSTSSDITPTNSGQLDNNPLFYMVTNRWDAIPEEESNESRNDSFNLTSSAEATQRLETIRNGMILMACKPMEQLTLDVEANGFDLSPSESSSSSTNAKSDGRERLTVTDTKPVMMTTDLSNNNGGIHAHSNGLLSHANGWQARDEELQEQEHEQEIVNSLDVDVDPDEDENDGTEQSLAEILDPELQPEPPIPNDAESQLIYRDHRHMAKEYLSVDTNLYYAQDFKDKLIVQMDRTEREQKQELLRKMKDKEGLQSLYNNLQQQYASRQLAAGHHPQPHPHPHPNQLQHPHSHPPMHFLQDEGCGLLPGSVCGGSESVEEGWVVIPPHHNA
For B1, the binding result in experiment [1] and in experiment [2] was “binds” each time.
